From article PMC10605010, “Immunotechniques for the Group Determination of Macrolide Antibiotics Traces in the Environment Using a Volume-Mediated Sensitivity Enhancement Strategy” (Biosensors, 2023)

Assay: Recovery of macrolides from spiked environmental water by PrG-ELISA
[1] = spike level 0.075 ng/mL, sample dilution 10
[2] = spike level 2.00 ng/mL, sample dilution 100
[3] = spike level 1.05 ng/mL, sample dilution 10
[4] = spike level 0.75 ng/mL, sample dilution 10
[5] = spike level 0.15 ng/mL, sample dilution 10
[6] = spike level 3.33 ng/mL, sample dilution 100

CC[C@H]1OC(=O)[C@H](C)[C@@H](O[C@H]2C[C@@](C)(OC)[C@@H](O)[C@H](C)O2)[C@H](C)[C@@H](O[C@@H]2O[C@H](C)C[C@H](N(C)C)[C@H]2O)[C@](C)(OC)C[C@@H](C)C(=O)[C@H](C)[C@@H](O)[C@]1(C)O [CLA, clarithromycin]
Found concentration, ERY eqs [1]: 0.069 ng/mL
RC (recovery) [1]: 97.3%
Found concentration, ERY eqs [2]: 1.97 ng/mL
RC (recovery) [2]: 103.5%

CCOC(=O)CCC(=O)O[C@H]1[C@H](O[C@@H]2[C@@H](C)[C@H](O[C@H]3C[C@@](C)(OC)[C@@H](O)[C@H](C)O3)[C@@H](C)C(=O)O[C@H](CC)[C@@](C)(O)[C@H](O)[C@@H](C)C(=O)[C@H](C)C[C@@]2(C)O)O[C@H](C)C[C@@H]1N(C)C [ESE, erythromycin ethyl succinate]
Found concentration, ERY eqs [3]: 0.50 ng/mL
RC (recovery) [3]: 83.8%

CC[C@H]1OC(=O)[C@H](C)[C@@H](O[C@H]2C[C@@](C)(OC)[C@@H](O)[C@H](C)O2)[C@H](C)[C@@H](O[C@@H]2O[C@H](C)C[C@H](N(C)C)[C@H]2O)[C@](C)(O)C[C@@H](C)[C@@H]2N[C@@H](COCCOC)O[C@H]([C@H]2C)[C@]1(C)O [DIR, dirithromycin]
Found concentration, ERY eqs [4]: 0.37 ng/mL
RC (recovery) [4]: 114.3%

CC[C@H]1OC(=O)[C@H](C)[C@@H](O[C@H]2C[C@@](C)(OC)[C@@H](O)[C@H](C)O2)[C@H](C)[C@@H](O[C@@H]2O[C@H](C)C[C@H](N(C)C)[C@H]2O)[C@](C)(O)C[C@@H](C)CN(C)[C@H](C)[C@@H](O)[C@]1(C)O [AZI, azithromycin]
Found concentration, ERY eqs [5]: 0.083 ng/mL
RC (recovery) [5]: 141.3%
Found concentration, ERY eqs [6]: 1.27 ng/mL
RC (recovery) [6]: 95.2%
